# No constants are given. Whether binding was seen depends on the method and setting. Some entries that bind do so weakly or less than the wild type.
# Amino acid sequences for entries named in this document (tags omitted). A change or cut given only in a name is not applied to a line headed by its entry. Chains listed by the source or under a name are the forms on record and can include a tag or linker.
# UniProt P02453: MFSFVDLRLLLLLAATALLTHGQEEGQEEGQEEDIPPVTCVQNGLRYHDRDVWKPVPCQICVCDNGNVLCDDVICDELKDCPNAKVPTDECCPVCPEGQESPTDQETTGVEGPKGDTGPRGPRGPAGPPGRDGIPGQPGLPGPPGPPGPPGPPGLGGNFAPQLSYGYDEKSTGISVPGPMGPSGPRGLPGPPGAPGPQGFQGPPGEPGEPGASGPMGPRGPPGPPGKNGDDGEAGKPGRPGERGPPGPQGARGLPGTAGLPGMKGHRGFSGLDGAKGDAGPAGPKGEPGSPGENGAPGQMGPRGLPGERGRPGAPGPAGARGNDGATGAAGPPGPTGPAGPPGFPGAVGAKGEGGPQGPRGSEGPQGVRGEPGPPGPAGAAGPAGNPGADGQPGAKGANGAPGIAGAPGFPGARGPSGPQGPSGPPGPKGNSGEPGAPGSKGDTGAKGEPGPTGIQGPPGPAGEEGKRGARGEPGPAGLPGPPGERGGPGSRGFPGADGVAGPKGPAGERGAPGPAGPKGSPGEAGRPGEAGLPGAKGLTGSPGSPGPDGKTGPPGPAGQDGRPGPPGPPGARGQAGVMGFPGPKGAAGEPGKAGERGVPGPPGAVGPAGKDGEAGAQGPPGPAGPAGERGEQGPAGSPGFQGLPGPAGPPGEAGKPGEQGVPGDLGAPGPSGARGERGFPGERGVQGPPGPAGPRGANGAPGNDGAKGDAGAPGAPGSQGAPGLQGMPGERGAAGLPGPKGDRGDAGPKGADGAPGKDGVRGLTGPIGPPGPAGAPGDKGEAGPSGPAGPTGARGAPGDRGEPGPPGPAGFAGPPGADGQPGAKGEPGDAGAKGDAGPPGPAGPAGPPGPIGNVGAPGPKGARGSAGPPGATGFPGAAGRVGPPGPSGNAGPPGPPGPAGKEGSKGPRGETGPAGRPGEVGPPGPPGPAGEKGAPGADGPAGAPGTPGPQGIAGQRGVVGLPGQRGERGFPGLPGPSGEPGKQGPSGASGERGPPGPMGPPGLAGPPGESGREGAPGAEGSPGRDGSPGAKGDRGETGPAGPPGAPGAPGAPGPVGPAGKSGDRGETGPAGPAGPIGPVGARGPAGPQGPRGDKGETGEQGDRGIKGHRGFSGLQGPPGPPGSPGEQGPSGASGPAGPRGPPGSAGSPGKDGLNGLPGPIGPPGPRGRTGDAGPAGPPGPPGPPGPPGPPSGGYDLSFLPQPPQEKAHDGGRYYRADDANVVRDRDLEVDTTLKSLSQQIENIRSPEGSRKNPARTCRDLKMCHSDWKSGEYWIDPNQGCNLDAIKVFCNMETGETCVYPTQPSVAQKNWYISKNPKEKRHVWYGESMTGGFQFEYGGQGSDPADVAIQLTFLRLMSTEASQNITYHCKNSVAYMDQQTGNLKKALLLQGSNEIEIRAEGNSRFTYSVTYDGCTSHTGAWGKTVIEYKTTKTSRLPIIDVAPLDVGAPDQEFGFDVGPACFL
# UniProt P02465: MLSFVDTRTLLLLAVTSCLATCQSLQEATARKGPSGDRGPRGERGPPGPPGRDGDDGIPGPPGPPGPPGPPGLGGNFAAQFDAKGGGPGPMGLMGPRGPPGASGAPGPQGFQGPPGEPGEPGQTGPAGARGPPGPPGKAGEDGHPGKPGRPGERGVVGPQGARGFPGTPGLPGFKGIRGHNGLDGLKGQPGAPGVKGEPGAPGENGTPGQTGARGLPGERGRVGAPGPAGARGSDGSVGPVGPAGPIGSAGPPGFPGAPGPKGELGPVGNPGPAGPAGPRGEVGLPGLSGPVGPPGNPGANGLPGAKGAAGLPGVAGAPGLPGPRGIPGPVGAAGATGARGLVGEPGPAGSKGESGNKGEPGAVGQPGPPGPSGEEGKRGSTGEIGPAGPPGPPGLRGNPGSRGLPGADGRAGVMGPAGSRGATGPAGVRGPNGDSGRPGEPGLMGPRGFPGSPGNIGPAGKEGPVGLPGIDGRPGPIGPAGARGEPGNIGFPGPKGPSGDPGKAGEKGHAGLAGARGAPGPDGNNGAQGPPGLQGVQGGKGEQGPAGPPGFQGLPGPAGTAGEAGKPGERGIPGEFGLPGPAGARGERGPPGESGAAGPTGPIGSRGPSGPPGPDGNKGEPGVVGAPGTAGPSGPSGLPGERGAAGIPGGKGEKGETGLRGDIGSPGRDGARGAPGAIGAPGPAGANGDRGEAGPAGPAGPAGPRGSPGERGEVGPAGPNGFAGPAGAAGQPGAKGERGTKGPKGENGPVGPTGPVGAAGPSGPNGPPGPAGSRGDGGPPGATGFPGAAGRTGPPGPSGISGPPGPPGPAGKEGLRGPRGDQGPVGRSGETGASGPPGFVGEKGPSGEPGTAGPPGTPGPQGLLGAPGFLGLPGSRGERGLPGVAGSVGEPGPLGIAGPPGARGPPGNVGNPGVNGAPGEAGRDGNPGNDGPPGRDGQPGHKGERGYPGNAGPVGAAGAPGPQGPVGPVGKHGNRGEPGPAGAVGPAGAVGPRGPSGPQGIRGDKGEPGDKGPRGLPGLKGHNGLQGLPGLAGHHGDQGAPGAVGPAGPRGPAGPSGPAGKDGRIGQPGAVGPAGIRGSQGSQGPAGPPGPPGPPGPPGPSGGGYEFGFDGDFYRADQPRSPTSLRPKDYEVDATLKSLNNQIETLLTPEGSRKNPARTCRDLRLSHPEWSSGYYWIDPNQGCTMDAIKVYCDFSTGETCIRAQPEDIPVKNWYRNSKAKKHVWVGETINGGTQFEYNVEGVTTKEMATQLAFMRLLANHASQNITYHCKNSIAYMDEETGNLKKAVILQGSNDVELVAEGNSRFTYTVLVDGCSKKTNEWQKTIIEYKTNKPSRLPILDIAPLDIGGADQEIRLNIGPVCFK
# human plasma fibronectin (P02751, form named): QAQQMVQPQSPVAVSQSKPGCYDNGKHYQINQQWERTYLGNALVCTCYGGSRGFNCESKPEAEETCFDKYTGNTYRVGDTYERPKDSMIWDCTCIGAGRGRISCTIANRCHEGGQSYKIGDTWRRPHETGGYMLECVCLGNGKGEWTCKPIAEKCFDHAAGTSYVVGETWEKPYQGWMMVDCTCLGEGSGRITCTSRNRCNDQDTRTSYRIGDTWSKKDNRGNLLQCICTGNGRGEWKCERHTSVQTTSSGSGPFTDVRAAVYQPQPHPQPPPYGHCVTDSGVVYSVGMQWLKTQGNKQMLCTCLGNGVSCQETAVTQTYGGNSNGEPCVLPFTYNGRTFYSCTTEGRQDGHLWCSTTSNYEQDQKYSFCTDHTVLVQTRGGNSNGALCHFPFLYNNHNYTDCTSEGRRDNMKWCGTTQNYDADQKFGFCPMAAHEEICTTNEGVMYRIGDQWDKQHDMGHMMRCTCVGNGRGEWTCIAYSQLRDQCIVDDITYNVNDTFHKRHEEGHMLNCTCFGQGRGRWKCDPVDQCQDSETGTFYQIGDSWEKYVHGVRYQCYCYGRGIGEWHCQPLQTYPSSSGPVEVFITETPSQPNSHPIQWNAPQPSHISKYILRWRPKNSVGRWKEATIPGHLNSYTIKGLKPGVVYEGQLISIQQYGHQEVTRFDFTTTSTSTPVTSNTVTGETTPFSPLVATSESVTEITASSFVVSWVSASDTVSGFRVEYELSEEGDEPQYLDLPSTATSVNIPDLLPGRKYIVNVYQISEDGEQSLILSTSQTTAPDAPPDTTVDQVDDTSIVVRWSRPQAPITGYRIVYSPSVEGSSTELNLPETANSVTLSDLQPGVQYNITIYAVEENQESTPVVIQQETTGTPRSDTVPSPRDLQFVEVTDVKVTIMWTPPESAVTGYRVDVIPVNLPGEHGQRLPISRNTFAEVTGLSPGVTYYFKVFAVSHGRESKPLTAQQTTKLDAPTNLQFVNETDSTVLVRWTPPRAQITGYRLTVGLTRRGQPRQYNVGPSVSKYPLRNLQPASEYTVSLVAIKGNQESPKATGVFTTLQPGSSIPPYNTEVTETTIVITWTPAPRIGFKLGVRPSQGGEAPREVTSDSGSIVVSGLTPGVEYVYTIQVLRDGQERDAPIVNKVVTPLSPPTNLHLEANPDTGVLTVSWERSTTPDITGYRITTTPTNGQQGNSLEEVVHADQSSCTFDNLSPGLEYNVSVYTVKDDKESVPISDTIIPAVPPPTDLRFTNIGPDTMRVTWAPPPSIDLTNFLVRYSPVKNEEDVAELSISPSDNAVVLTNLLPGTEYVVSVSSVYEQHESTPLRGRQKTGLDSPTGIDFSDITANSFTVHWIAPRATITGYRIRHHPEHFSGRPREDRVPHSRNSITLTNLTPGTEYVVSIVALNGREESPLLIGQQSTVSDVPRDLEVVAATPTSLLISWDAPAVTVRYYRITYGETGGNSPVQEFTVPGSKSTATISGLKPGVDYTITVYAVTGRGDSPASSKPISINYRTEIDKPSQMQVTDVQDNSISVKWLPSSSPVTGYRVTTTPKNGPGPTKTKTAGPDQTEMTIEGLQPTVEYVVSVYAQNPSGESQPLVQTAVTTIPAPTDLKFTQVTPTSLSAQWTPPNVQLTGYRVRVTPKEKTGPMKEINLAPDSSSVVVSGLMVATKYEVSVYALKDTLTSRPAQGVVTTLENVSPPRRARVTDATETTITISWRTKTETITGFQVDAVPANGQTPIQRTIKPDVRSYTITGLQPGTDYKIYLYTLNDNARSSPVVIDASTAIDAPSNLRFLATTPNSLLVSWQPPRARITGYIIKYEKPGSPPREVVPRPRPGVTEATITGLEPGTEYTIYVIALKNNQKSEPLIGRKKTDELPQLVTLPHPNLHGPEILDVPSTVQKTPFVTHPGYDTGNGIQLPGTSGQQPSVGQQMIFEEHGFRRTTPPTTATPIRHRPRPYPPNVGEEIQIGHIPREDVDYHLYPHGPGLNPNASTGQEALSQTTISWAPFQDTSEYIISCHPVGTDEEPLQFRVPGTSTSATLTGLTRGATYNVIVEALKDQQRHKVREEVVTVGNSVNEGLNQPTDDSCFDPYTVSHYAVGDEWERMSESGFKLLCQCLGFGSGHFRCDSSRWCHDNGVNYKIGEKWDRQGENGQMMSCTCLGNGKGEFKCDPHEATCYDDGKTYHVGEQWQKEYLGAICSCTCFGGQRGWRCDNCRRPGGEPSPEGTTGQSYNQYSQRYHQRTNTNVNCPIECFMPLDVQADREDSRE
# UniProt P01137: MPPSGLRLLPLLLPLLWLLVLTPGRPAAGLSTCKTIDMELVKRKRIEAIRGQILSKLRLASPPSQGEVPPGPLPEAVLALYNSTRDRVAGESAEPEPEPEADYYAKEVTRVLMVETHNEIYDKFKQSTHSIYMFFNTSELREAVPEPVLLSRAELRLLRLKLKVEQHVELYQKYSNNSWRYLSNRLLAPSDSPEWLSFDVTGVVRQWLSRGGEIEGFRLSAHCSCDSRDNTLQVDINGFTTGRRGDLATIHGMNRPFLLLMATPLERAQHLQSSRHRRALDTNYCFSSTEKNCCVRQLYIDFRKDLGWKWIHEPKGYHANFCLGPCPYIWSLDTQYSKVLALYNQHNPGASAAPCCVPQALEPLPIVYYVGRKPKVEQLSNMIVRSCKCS
# How the values were obtained:
# [1] = biological target: pepsin-treated, acid-extracted bovine tendon collagen type I (bovine) (UniProt P02453+P02465); assay: adsorbed onto collagen-coated wells, rinsed, Mv1Lu proliferation read-out
# [2] = biological target: human plasma fibronectin (human) (UniProt P02751); assay: adsorbed onto fibronectin-coated wells, rinsed, Mv1Lu proliferation read-out
substance,measurement,setting,value
TGFβ1-Thrombin fusion protein (from UniProt P01137 279-390),binding,[1],binds
same,binding,[2],binds

# Source: patent publication US6352972
